Measured values as given in publication PMC5352752, “Discovery and characterization of an F420-dependent glucose-6-phosphate dehydrogenase (Rh-FGD1) from Rhodococcus jostii RHA1” (Applied Microbiology and Biotechnology, 2016).
Results are given in words; binding and its absence hold for the method and conditions named. Some entries that bind do so weakly or less than the wild type. Sequences can lack the tags named with a protein.

Molecular target: F420-dependent glucose-6-phosphate dehydrogenase Rh-FGD1 from Rhodococcus jostii RHA1 (Rhodococcus jostii RHA1) (UniProt Q0RVH7)
Assay: crystal structure; native Rh-FGD1 apo form, sitting-drop vapor diffusion at 20 °C, 0.16 M ammonium sulfate, 0.08 M sodium acetate pH 4.6, 20% PEG 4000, 20% glycerol; two monomers in the asymmetric unit; both purified

- binding: binds
B1: F420-dependent glucose-6-phosphate dehydrogenase Rh-FGD1 from Rhodococcus jostii RHA1 (enzyme, UniProt Q0RVH7 1-335, looked up)
chain: MVIKFGYKASAEQFGPRELVELGVLAEAHGMDSATVSDHFQPWRHEGGHAPFSLAWMTAVGERTSRLQLGTSVMTPTFRYNPAVVAQAFATMGCLYPGRIMLGVGTGEALNEIATGFAGEWPEFKERFARLREAVALMRELWLGDRVDFEGNYYKTVGASIYDVPEGGIPVYIAAGGPVVARYAGRSGDGFICTSGKGMELYTEKLMPAVAEGAEKADRDVAEIDKMIEIKISYDTDPELALENTRFWAPLSLTPEQKHSIDDPIEMERAADALPIEQVAKRWIVASDPDEAVAQIRPYLDAGLNHLVFHAPGHDQKRFLELFQRDLAPRLRGLA
notes: each monomer is comprised of residues 1-334; The native enzyme (tag cleaved) was used for crystallization; also called RHA1_RS43115; native Rh-FGD1; source: E. coli C41(DE3), purified (HisTrap, His-SUMO tag cleaved with SUMO protease, second HisTrap, Superdex 200); not shown: His6, N-terminal, cleaved; SUMO, N-terminal, cleaved
